Most values lie at the floor of the assay. Slopes are relative: functional sequences can read slightly below zero.
Test system: Saccharomyces cerevisiae PS128 hsf1 delta, HSF1(1-493) fusion
Assay: growth estimate (transactivation domain function in HSF1 fusion, heat-shock survival) (a.u. (slope of normalised read count over time)); higher = stronger growth at 37°C, i.e. more transactivation activity
Conditions: library: random library

Row | Substance | growth estimate
1 | VRNHLVIGIVKVIAAKNIGV | < -0.25
2 | AGRHA | < -0.25
3 | RALVATVEQGGESFGSLATM | -0.229
4 | SLKSAEVSLVGCRLCWKPRV | < -0.25
5 | VVTGEGFFSVLTG | < -0.25
6 | QEYNHYSRKGYEVSAVF | < -0.25
7 | VHTLPRAARRE | < -0.25
8 | WNGFRGIGSYMARLYVLGSG | < -0.25
9 | QAHDQYRIVVAVCLVLRYSD | < -0.25
10 | VFS | < -0.25
11 | GDLPSRYNVRVSSPIVLFSK | < -0.25
12 | NEYMAEGWLGKT | < -0.25
13 | RRWFVIDLL | < -0.25
14 | KIHRSEQVKVVQEAFTQDPT | < -0.25
15 | DLFLLT | -0.236
16 | GELRAVVLYDHQMGSRARSA | < -0.25
17 | SKRLLRPCYKGPESVEASET | < -0.25
18 | LKI | < -0.25
19 | GYLPYYRLEMSYQFLNWVAY | < -0.25
20 | VDTYLWKAIACLTDQ | < -0.25
21 | RAQRARKGIKGIGWLSIDFA | < -0.25
22 | SFWLGGLSIGCMSVFKFPG | < -0.25
23 | SSVQSTASIERVNTAHIVDY | < -0.25
24 | YRGNCRGASCRLMARSAPSS | < -0.25

An excerpt of these results, in markdown.

| Row | Substance | growth estimate |
| --- | --- | --- |
| 20 | VDTYLWKAIACLTDQ | < -0.25 |
| 21 | RAQRARKGIKGIGWLSIDFA | < -0.25 |
| 22 | SFWLGGLSIGCMSVFKFPG | < -0.25 |
| 23 | SSVQSTASIERVNTAHIVDY | < -0.25 |
| 24 | YRGNCRGASCRLMARSAPSS | < -0.25 |

(continued)

Row | Substance | growth estimate
25 | SCTAKRILFTVDRPLGALVT | < -0.25
26 | GVFHLSTKGLLFKDKSLALR | -0.231
27 | GLVRRRTPVLAVYGAILITL | < -0.25
28 | SGDLQS | < -0.25
29 | DQRKATTEWGKDIEEQFSHP | < -0.25
30 | VPHRGDAIHYPSYSEDKAHE | < -0.25
31 | GTYRSDL | < -0.25
32 | LSRFCP | < -0.25
33 | VLRRVFQGYG | < -0.25
34 | PPQDLEGFLTIVP | -0.204
35 | IFKLSSTVQD | < -0.25
36 | SGWS | < -0.25
37 | VTIELRWAREKLCSAIRYFR | < -0.25
38 | VVDKGVEFM | < -0.25
39 | TFFNLLTKCPVEIKRRGAPN | < -0.25
40 | SIESLTCAT | < -0.25
41 | LTHQLEN | < -0.25
42 | GSTSVTRFVAGCLSTLSNLA | < -0.25
43 | SAMRYSGSKGEDMSHRRIC | < -0.25
44 | WRGLVQWNVVRLVDFFRRSP | < -0.25
45 | ARTHLS | < -0.25
46 | VSIMFTGGGLRGHNRYAASL | < -0.25
47 | CLYDSRSCLG | < -0.25
48 | ENQDVNRGWKIEPAPATTLS | < -0.25

Row | Substance | growth estimate
49 | LISTSGFDLRQSSRGFTLHV | < -0.25
50 | PVRIGAGDMGTTSVGHICRY | < -0.25
51 | GCDRE | < -0.25
52 | KCVHRDPCSRWS | < -0.25
53 | FIIPDRTDDRILARFGLSSN | < -0.25
54 | RSEVGT | -0.22
55 | SEQMSPRR | < -0.25
56 | CHPGFLVESRLERSKVSRLI | < -0.25
57 | EGFLGTSCVFT | < -0.25
58 | LTVRWLRSDSGGQASVTAGH | -0.248
59 | VNPQKVSITPKVPAGTP | < -0.25
60 | GVSGRT | < -0.25
61 | GRHGNRTRLNKLHTGTWYAT | < -0.25
62 | KVVVGEPPWLTYIKTLREQL | < -0.25
63 | IGRADLGGRIDQKDVKRFLR | < -0.25
64 | QVPTLTPLGLSIAVDHCWTV | < -0.25
65 | ERMWFDFNPSANLCSSPVGG | < -0.25
66 | PSGDQGVHKDQSRVKGILAH | < -0.25
67 | WKTRWAQCVRPARLLADPGW | < -0.25
68 | IASRFTRVPSPTPVISKWVP | < -0.25
69 | SGDRPPPRSDCHQYGSECGA | < -0.25
70 | VTHGCTGALRYTSALRHCTK | < -0.25
71 | GEFGGRRMLPRMSERQATHR | < -0.25
72 | WSGIGTVCKLGTSYVHVAAV | < -0.25

Row | Substance | growth estimate
73 | WSRPTLGALLLMSINLVNSL | < -0.25
74 | VGDPASGPINKNGRSKLQSS | < -0.25
75 | SRASLRKCAVQARGERRACW | < -0.25
76 | SFKMRTEHYWAGSTSWK | < -0.25
77 | VMGWPLLIKCEEWASRSVTF | -0.243
78 | GRRVVLALRVALTPN | < -0.25
79 | KADISRGVFPDYG | -0.246
80 | VSKVSYVSICSVRGDCCG | < -0.25
81 | SDIPRIGASDCSCSFKLFEW | -0.0802
82 | FSERRTRKTSMASCLARAIR | < -0.25
83 | GRSKLGIDVRKM | < -0.25
84 | CTVFPR | < -0.25
85 | YVSACLRQATNFD | < -0.25
86 | RFSG | < -0.25
87 | SQDGWSCGRLTTPDS | < -0.25
88 | EVKQTPTADKVSAGCERQGT | -0.241
89 | DVRTRGAC | < -0.25
90 | SSACRTD | < -0.25
91 | GLNPLAQNRDIVNVVMDEGA | < -0.25
92 | ESRSYSWQ | < -0.25
93 | SSWSILRCSL | < -0.25
94 | LSRRGI | < -0.25
